Targets include GFP–MYO6^TAIL-B (mouse) (UniProt Q64331); GFP–MYO6^TAIL-A (mouse); GFP–MYO6^TAIL-C (mouse); GFP–MYO7A^TAIL (UniProt P97479).
Common to all, as to assay: NanoSPD; HeLa cells transfected with MYO10^NANOTRAP, a GFP- (or mEMERALD-) tagged bait and an mCherry-tagged prey; co-transport of the prey to filopodial tips; fixed about 24 h after transfection

Protein sequences, listed by entry. Tags and fused reporters are not part of them. Lines headed by an entry give the natural chain unless they say otherwise; changes in a name come on top.
UniProt Q64331: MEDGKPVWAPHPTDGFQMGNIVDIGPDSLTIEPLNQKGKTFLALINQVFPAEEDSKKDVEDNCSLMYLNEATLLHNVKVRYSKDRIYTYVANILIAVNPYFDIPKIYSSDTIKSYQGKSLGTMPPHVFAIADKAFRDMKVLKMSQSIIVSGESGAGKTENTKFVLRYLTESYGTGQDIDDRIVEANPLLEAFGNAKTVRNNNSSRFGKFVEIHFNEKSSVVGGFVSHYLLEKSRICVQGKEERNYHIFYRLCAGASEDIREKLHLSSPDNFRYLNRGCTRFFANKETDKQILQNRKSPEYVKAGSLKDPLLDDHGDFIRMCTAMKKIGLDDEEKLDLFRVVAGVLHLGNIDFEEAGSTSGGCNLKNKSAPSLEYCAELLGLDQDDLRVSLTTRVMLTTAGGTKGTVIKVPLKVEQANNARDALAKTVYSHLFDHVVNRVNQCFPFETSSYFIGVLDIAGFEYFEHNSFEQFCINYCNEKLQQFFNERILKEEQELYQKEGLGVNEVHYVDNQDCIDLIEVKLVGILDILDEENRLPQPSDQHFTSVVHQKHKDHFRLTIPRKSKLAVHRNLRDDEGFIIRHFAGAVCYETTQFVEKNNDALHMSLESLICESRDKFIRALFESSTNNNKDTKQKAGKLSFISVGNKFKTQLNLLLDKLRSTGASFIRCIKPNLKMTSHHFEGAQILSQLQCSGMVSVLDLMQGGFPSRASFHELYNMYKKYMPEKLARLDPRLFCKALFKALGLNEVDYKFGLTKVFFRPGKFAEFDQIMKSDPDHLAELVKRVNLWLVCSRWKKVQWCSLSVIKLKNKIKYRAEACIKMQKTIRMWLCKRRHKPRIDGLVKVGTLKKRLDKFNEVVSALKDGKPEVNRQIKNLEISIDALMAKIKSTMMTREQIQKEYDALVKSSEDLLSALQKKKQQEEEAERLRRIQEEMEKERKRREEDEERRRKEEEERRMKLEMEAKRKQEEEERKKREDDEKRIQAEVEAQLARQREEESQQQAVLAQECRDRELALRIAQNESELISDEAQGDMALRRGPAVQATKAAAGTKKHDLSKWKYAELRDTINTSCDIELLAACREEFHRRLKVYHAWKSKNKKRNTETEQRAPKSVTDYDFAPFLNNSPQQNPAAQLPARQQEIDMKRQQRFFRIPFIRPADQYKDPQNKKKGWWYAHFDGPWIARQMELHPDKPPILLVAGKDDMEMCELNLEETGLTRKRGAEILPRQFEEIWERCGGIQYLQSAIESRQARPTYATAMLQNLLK
UniProt P97479: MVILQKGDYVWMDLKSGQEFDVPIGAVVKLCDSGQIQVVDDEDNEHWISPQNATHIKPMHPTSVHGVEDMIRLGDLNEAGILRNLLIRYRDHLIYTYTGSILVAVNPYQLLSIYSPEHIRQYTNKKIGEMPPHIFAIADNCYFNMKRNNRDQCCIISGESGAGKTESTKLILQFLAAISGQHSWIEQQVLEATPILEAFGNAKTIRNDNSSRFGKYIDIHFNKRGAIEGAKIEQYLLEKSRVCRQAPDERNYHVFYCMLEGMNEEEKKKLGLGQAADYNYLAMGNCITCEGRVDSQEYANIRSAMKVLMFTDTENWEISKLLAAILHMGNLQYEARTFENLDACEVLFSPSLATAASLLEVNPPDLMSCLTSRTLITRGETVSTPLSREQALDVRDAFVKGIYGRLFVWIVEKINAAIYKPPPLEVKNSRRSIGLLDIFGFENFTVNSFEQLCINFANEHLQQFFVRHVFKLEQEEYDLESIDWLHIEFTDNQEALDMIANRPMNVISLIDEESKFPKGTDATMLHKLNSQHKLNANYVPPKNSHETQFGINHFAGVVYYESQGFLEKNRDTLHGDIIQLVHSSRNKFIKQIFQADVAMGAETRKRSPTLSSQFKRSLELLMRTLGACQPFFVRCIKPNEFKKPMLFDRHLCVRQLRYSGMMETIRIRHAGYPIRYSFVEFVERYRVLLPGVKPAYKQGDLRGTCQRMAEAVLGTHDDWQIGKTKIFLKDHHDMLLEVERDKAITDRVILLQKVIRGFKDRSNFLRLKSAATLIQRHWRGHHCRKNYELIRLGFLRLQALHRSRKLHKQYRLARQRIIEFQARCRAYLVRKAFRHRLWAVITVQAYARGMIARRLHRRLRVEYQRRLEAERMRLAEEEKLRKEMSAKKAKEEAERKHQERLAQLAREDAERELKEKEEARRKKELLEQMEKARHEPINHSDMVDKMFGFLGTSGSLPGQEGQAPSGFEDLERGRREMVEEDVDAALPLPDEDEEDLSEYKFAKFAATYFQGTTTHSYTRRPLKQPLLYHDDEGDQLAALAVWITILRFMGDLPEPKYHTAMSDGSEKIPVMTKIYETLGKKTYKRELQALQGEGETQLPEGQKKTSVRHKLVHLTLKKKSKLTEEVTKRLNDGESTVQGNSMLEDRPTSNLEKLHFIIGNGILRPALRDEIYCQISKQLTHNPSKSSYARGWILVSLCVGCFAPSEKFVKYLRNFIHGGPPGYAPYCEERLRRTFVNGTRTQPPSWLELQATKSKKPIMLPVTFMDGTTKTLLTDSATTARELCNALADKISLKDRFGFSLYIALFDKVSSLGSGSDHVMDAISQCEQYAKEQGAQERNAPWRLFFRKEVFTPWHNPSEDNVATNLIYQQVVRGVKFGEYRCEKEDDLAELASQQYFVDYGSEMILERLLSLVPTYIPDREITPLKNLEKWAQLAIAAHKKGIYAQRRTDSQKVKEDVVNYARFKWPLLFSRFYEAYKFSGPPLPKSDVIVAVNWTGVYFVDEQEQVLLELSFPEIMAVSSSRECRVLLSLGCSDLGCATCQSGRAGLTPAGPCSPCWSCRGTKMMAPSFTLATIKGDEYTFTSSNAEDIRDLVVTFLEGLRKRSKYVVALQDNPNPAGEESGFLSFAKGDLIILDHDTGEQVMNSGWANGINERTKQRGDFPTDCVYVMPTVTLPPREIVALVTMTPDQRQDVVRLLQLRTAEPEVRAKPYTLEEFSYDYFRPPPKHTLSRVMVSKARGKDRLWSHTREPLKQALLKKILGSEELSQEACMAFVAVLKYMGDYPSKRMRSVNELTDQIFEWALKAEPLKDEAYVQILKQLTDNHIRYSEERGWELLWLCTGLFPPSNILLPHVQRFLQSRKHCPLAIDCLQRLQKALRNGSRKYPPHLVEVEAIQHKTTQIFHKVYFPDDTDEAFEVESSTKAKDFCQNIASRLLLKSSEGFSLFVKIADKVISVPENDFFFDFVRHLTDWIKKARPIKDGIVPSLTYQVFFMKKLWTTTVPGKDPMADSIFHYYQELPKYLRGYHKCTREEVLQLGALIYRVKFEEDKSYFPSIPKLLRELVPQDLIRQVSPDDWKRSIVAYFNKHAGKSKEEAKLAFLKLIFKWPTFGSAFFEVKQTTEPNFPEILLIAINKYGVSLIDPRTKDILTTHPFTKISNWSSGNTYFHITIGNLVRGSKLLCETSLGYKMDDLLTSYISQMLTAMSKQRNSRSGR

Results are given in words; binding and its absence hold for the method and conditions named. Binding can be weak; no strength is given.

B1: mCherry–GIPC3 (protein, UniProt Q8R5M0 1-297)
chain: MDSAAPREPGATEPPARARPRLVFRTQLAHGSPTGRIEGFTNVRELYAKIAEAFGIAPTEILFCTLNSHKVDMQKLLGGQIGLEDFIFAHVRGETKEVEVTKTEDALGLTITDNGAGYAFIKRIKEGSIINRIEAVCVGDSIEAINDHSIVGCRHYEVAKMLRELPKSQPFTLRLVQPRRAFDMIGQRSRSSKCPVEAKVSSGRETLRLRSGGAATVEEAPSDVEAAAARRVDDLLESYMGIRDPELAAAVVETARSSAGAQAFARGLDAVLGEFAFPDEFVVEVWAAIGEAHDACG
Turning to B1, the binding result is listed as “binds” with GFP–MYO6^TAIL-B (mouse), “binds” with GFP–MYO6^TAIL-A (mouse), “binds” with GFP–MYO6^TAIL-C (mouse) and “no binding” with GFP–MYO7A^TAIL.

B2: mCherry–PDZD7 (protein, UniProt E9Q9W7 1-1021)
chain: MARGFTVGFDPLGLGELSSGSLSSVSSRGHLGSDSGSTATRYLLRKQQRLLNGPSRGIRASSPMGRVILINSPIEANSDESDIIHAVRVEKSPSGRLGFSVRGGSEHGLGIFVSKVEEGSSAERAGLCVGDKITEVNGLSLESTTMGSAVRLLTSSSCLHMMVRRMGRVPGIKFSKEKTTWVDVVNRRLVVEKCSSTPSDRSSEDGVRRIVHLYTTSDDFCLGFNIRGGKEFGLGIYVSKVDHGGLAEENGIKVGDQVLAANGVRFDDISHSQAVEVLKGQTHIMLTIKETGRYPAYKEMVSEYCWLDRLSNGVLQQLSPASESSSSVSSYASSAPCSSGSLPSDRMDVCLGPEEPTSHGPGWGRADTAMQTEPDLDSRVETWCSVRPTVILRDTAIRSDGPSSTRHLDSALSESPKTALLLALSRPRTPITRSQSHLTLWEEKKQRKKEKSGSSGEKGALQRSKTLMNLFFKGGRQGRPAGDGHREAWTLDSRSPTKVRPRLDLEKAGSVGPVQKFVTWRLRRDRERGRALLSARSGSPSGQAPTVNEQVQAWESRRPLIQDLARRLLTDDEVLAVTRHCSRYVHEGGVEDLVRPLLAILDRPTKLLLLRDIRSVVAPTDLGRFDSMVMPVELEAFEALKSRAVGPSALRPTRQDTPPKRHLITPVPDSRGGFYLLPVNSSEDEDGEIREKLGVLKVSLGASAPHHKGIPPLQDVPVDAFSLRRGACAPPPQPPPVAPRPPRPNWLLTEPLSREDTQQNQSQTPAQSCSRSRSRSRSRSHSRGQGKSPGRRRSPSPAPIATAATANGRYHRPRKARPLLPRLLDGQVAKVGARQGPLENGRIAEEAVGNVSTGALRTITLSKMKQSLGISISGGIESKVQPMVKIEKIFPGGAAFLCGDLQAGFELVAVDGESLEQVTHQRAVDTIRRAYRNKAREPMELVVRVPGPGLLPLASDLRVVKDQSLAPDCPSALGPVDDARILTQLPPPEARQLQQSLSSALKVPQSIPKLSPILKDPHDPS
As to B2, the binding result in the assay with GFP–MYO7A^TAIL was “binds”.

The values are drawn from article PMC10234109 (2023).
